No constants are given. Whether binding was seen depends on the method and setting. Binding seen in cells or lysates may run through a third protein. Some entries that bind do so weakly or less than the wild type. For part of these data: Tags and fused reporters may be left off the sequences shown.
Legend:
[1] = target: MITA (endogenous, decidual tissue) (human (endogenous in decidual tissue)) (UniProt Q86WV6); experiment: co-IP; endogenous co-IP from decidual tissue lysates (URSA group and control group), western & IP lysate; immunoprecipitation with a monoclonal antibody against MITA on magnetic beads, overnight at 4 °C; normal rabbit IgG as negative control; western blot
[2] = target: HA-tagged MITA (HA-MITA) (UniProt Q86WV6); experiment: co-IP; exogenous co-IP from 293 T cells cotransfected with a Flag-TRIM38 construct, HA-MITA and His-K48, collected 24 h after transfection; lysis in 25 mM Tris-HCl pH 7.4, 150 mM NaCl, 1% NP-40, 0.25% sodium deoxycholate, 1 mM EDTA; immunoprecipitation with antibodies against Flag, HA or His on magnetic beads; normal rabbit IgG as negative control; western blot
[3] = target: MITA (endogenous, M1 and M2 macrophages polarized from THP-1 cells) (human (endogenous in THP-1)) (UniProt Q86WV6); experiment: co-IP; endogenous co-IP from lysates of M1 and M2 macrophages polarized from THP-1 cells, western & IP lysate; immunoprecipitation with a monoclonal antibody against MITA on magnetic beads, overnight at 4 °C; normal rabbit IgG as negative control; western blot

Amino acid sequences for entries named in this document (tags omitted).
UniProt Q86WV6: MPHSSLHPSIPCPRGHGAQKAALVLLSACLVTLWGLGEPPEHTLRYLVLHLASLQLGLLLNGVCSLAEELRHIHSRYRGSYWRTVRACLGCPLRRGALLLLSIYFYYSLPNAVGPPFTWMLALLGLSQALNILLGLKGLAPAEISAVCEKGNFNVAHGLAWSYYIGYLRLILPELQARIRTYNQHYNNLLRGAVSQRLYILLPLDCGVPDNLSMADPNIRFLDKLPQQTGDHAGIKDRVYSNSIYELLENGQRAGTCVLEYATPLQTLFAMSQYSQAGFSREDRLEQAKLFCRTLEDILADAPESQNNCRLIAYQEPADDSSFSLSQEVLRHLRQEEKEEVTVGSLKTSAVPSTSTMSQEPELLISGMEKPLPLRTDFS

B1: TRIM38 (endogenous, decidual tissue) (protein, UniProt O00635 1-465)
chain: MASTTSTKKMMEEATCSICLSLMTNPVSINCGHSYCHLCITDFFKNPSQKQLRQETFCCPQCRAPFHMDSLRPNKQLGSLIEALKETDQEMSCEEHGEQFHLFCEDEGQLICWRCERAPQHKGHTTALVEDVCQGYKEKLQKAVTKLKQLEDRCTEQKLSTAMRITKWKEKVQIQRQKIRSDFKNLQCFLHEEEKSYLWRLEKEEQQTLSRLRDYEAGLGLKSNELKSHILELEEKCQGSAQKLLQNVNDTLSRSWAVKLETSEAVSLELHTMCNVSKLYFDVKKMLRSHQVSVTLDPDTAHHELILSEDRRQVTRGYTQENQDTSSRRFTAFPCVLGCEGFTSGRRYFEVDVGEGTGWDLGVCMENVQRGTGMKQEPQSGFWTLRLCKKKGYVALTSPPTSLHLHEQPLLVGIFLDYEAGVVSFYNGNTGCHIFTFPKASFSDTLRPYFQVYQYSPLFLPPPGD
In the case of B1, the binding [1] is reported as “binds”.

B2: Flag-tagged TRIM38 (Flag-TRIM38) (protein, UniProt O00635 1-465)
chain: B1 chain
For B2, the binding [2] was “binds”.

B3: TRIM38 (endogenous, M1 and M2 macrophages polarized from THP-1 cells) (protein, UniProt O00635 1-465)
chain: B1 chain
For B3, the binding [3] was “binds”.

From paper PMC10682411
